Experimental data: PubChem BioAssay AID743448 (Peter MacCallum Cancer Centre, 2014)

Assay: 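Test whether knock-downs sensitising to vorinostat hold across several colon lines but not etoposide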 (follow-up of hits)
Cells: four human colon cancer cell lines: HCT116-VR (vorinostat-resistant HCT116 derivative), SW480, SW620 and LIM1215
Knock-down reagent: siRNA pool against human genes, 40 nM siRNA pool
Timing: drug added two days after transfection, read one day later
Challenge: vorinostat 2.5 µM on one half of each plate, etoposide 5 µM on the other half
Cell line and drug panel: LIM1215 cells with vorinostat
Read-out: 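Caspase 3/7 activity by luminescence and live-cell viability by fluorescence, each given as a ratio to mock-transfected wells and as a robust z-score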
Reading the numbers: caspase ratio to mock: higher = more caspase activity than mock; viability ratio to mock: higher = more live cells than mock; caspase robust z-score: higher = more caspase activity, more apoptosis; viability robust z-score: higher = more live cells
Hit rule: 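Hit means caspase ratio to mock at least 1.6, or viability ratio to mock at most 0.75; wells with strong death in the absence of drug get no call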
Calls: active = caspase or viability hit in this panel; inactive = no change, or unhealthy well
This is a random part of the 106 reagents, under one of the conditions tested. 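Calls are per line and drug panel including etoposide, not vorinostat-specific; gene picks needed hits in two or more extra lines with vorinostat versus etoposide.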

gene knocked down | caspase ratio to mock | viability ratio to mock | caspase robust z-score | viability robust z-score | Call
CAPN12 (calpain 12) | 1.92 | 0.86 | -0.26 | -0.4 | inactive
LBHD1 (LBH domain containing 1) | 1.62 | 0.86 | -0.65 | -0.37 | active
TDP2 (tyrosyl-DNA phosphodiesterase 2) | 3.33 | 0.8 | 1.53 | -0.84 | active
NUP93 (nucleoporin 93) | 3.34 | 0.61 | 1.64 | -2.29 | inactive
LCE2A (late cornified envelope 2A) | 3.5 | 1 | 1.85 | 0.58 | active
MTF2 (metal response element binding transcription factor 2) | 2.16 | 0.93 | 0.06 | 0.12 | active
EIF2B5 (eukaryotic translation initiation factor 2B subunit epsilon) | 2.12 | 0.8 | 0.03 | -0.92 | active
THAP3 (THAP domain containing 3) | 1.31 | 0.88 | -1 | -0.25 | inactive
ANKRD13C-DT (ANKRD13C divergent transcript) | 2.13 | 0.92 | 0.04 | 0.06 | active
ANO9 (anoctamin 9) | 1.74 | 0.94 | -0.46 | 0.16 | active
OR2W5 | 2 | 1 | -0.12 | 0.58 | active
PSMD13 (proteasome 26S subunit, non-ATPase 13) | 2.7 | 0.82 | 0.82 | -0.68 | active
SEMA4F (ssemaphorin 4F) | 2.76 | 0.87 | 0.82 | -0.32 | active
NUP205 (nucleoporin 205) | 3.53 | 0.55 | 1.88 | -2.69 | active
FANCA (FA complementation group A) | 4.53 | 0.93 | 3.06 | 0.1 | active
DDX19B (DEAD-box helicase 19B) | 5.29 | 1 | 4.14 | 0.58 | inactive
C22orf15 (chromosome 22 open reading frame 15) | 2.93 | 0.88 | 1.1 | -0.23 | active
C1orf52 (chromosome 1 open reading frame 52) | 1.57 | 1.09 | -0.68 | 1.3 | inactive
GLI1 (GLI family zinc finger 1) | 1.7 | 1.07 | -0.48 | 1.17 | active
MICALL2 (MICAL like 2) | 3.52 | 1.12 | 1.79 | 1.58 | active
CCNK (cyclin K) | 2.09 | 1.07 | -0.04 | 1.18 | active
AMDHD2 (amidohydrolase domain containing 2) | 2.38 | 0.86 | 0.38 | -0.41 | active
CCDC59 (coiled-coil domain containing 59) | 1.9 | 0.77 | -0.26 | -1.05 | active
POLR2D (RNA polymerase II subunit D) | 2.17 | 0.86 | 0.05 | -0.44 | active
PSMD4 (proteasome 26S subunit ubiquitin receptor, non-ATPase 4) | 2.91 | 1.02 | 0.94 | 0.82 | active
GNG8 (G protein subunit gamma 8) | 3.06 | 0.82 | 1.24 | -0.74 | inactive
MRPL19 (mitochondrial ribosomal protein L19) | 1.45 | 1.02 | -0.83 | 0.76 | inactive
AP5S1 (adaptor related protein complex 5 subunit sigma 1) | 2.31 | 0.9 | 0.22 | -0.14 | inactive
NFYA (nuclear transcription factor Y subunit alpha) | 1.66 | 0.92 | -0.55 | 0.05 | active
POLR2L (RNA polymerase II, I and III subunit L) | 1.74 | 0.81 | -0.45 | -0.76 | active
SAP130 (Sin3A associated protein 130) | 2.32 | 0.81 | 0.26 | -0.78 | active
OR6T1 (olfactory receptor family 6 subfamily T member 1) | 2.04 | 0.91 | -0.08 | -0.02 | active
BEGAIN (brain enriched guanylate kinase associated) | 2.06 | 0.88 | -0.06 | -0.21 | active
OSBPL6 (oxysterol binding protein like 6) | 2 | 1.1 | -0.14 | 1.39 | active
SLU7 (spliceosome associated SLU7) | 3.33 | 0.66 | 1.54 | -1.88 | active
POLR2J (RNA polymerase II subunit J) | 1.98 | 0.8 | -0.16 | -0.8 | active
EIF2S1 (eukaryotic translation initiation factor 2 subunit alpha) | 1.98 | 0.69 | -0.05 | -1.66 | active
PRRT3 (proline rich transmembrane protein 3) | 2.17 | 0.99 | 0.12 | 0.64 | active
VAX1 (ventral anterior homeobox 1) | 1.52 | 0.87 | -0.75 | -0.31 | inactive
PUF60 (poly(U) binding splicing factor 60) | 3.22 | 0.8 | 1.41 | -0.87 | active

Continued, starting with the last 7 of the part before.
gene knocked down | caspase ratio to mock | viability ratio to mock | caspase robust z-score | viability robust z-score | Call
OSBPL6 (oxysterol binding protein like 6) | 2 | 1.1 | -0.14 | 1.39 | active
SLU7 (spliceosome associated SLU7) | 3.33 | 0.66 | 1.54 | -1.88 | active
POLR2J (RNA polymerase II subunit J) | 1.98 | 0.8 | -0.16 | -0.8 | active
EIF2S1 (eukaryotic translation initiation factor 2 subunit alpha) | 1.98 | 0.69 | -0.05 | -1.66 | active
PRRT3 (proline rich transmembrane protein 3) | 2.17 | 0.99 | 0.12 | 0.64 | active
VAX1 (ventral anterior homeobox 1) | 1.52 | 0.87 | -0.75 | -0.31 | inactive
PUF60 (poly(U) binding splicing factor 60) | 3.22 | 0.8 | 1.41 | -0.87 | active
MED26 (mediator complex subunit 26) | 3.17 | 1.05 | 1.42 | 1 | active
DDX18 (DEAD-box helicase 18) | 3.19 | 0.98 | 1.34 | 0.45 | active
LAD1 (ladinin 1) | 2.34 | 0.96 | 0.27 | 0.34 | active
SERTAD1 (SERTA domain containing 1) | 1.83 | 0.78 | -0.4 | -0.96 | active
RBM42 (RNA binding motif protein 42) | 1.86 | 0.82 | -0.29 | -0.73 | active
TGM5 (transglutaminase 5) | 1.35 | 0.9 | -0.96 | -0.11 | inactive
ZNF441 (zinc finger protein 441) | 1.72 | 0.78 | -0.52 | -0.98 | active
TOX4 (TOX high mobility group box family member 4) | 2.74 | 0.9 | 0.86 | -0.1 | active
IRX2-DT (IRX2 divergent transcript) | 3.86 | 1.37 | 2.15 | 3.37 | active
SH3GLB2 (SH3 domain containing GRB2 like, endophilin B2) | 1.37 | 0.96 | -0.94 | 0.36 | inactive
GATA1 (GATA binding protein 1) | 2.19 | 1.08 | 0.07 | 1.23 | active
THOC5 (THO complex subunit 5) | 1.58 | 0.87 | -0.6 | -0.34 | inactive
EIF1AX (eukaryotic translation initiation factor 1A X-linked) | 1.81 | 0.77 | -0.34 | -1.1 | active
CSE1L (chromosome segregation 1 like) | 3.15 | 0.88 | 1.32 | -0.22 | active
AQR (aquarius intron-binding spliceosomal factor) | 6.53 | 0.52 | 5.77 | -2.92 | inactive
CNOT3 (CCR4-NOT transcription complex subunit 3) | 1.58 | 1.15 | -0.68 | 1.75 | inactive
PNN (pinin, desmosome associated protein) | 2.62 | 0.86 | 0.7 | -0.41 | active
RLN3 (relaxin 3) | 1.78 | 1 | -0.39 | 0.59 | active
MED28 (mediator complex subunit 28) | 2.56 | 0.84 | 0.64 | -0.56 | active
DPPA5 (developmental pluripotency associated 5) | 1.54 | 0.87 | -0.68 | -0.33 | inactive
PSMA7 (proteasome 20S subunit alpha 7) | 4.88 | 0.8 | 3.43 | -0.85 | active
SCRT2 (scratch family transcriptional repressor 2) | 3.36 | 0.93 | 1.52 | 0.13 | inactive
EIF2B2 (eukaryotic translation initiation factor 2B subunit beta) | 1.93 | 0.86 | -0.21 | -0.43 | active
